Results reported in patent US7741286B2 (ConjuChem Biotechnologies Inc., priority 1999, dated 2010).

Assay: general procedure: Fmoc solid-phase peptide synthesis; Fmoc protected Rink Amide MBHA resin; HBTU in DMF with NMM activation
Conditions: whole synthesis, RP-HPLC mass spectrometry, Hewlett Packard LCMS-1100 with diode array detector and electro-spray ionization, scale 100 μmole

Substance | final LC-MS purity (2TFA) [%] | other results
(MPA)-Arg-Asn-Pro-Asp-Gly-Asp-Val-Gly-Gly-Pro-Trp-Ala-Tyr-Thr-Thr-Asn-Pro-Arg-Lys-Leu-Tyr-Asp-Tyr-NH2.3TFA | – | final LC-MS purity (3TFA): >95%
(MPA)-Arg-Asn-Pro-Asp-Gly-Asp-Val-Gly-Gly-Pro-Trp-NH2.TFA | – | final LC-MS purity (TFA): >95%
(MPA)-Arg-Lys-Leu-Tyr-Asp-Tyr-NH2.2TFA | >95 | –
(MPA)-Pro-Arg-Lys-Leu-Tyr-Asp-NH2.2TFA | >95 | –
(MPA-AEEA)-Arg-Asn-Pro-Asp-Gly-Asp-Val-Gly-Gly-Pro-Trp-NH2.TFA | – | final LC-MS purity (TFA): >95%
(MPA-AEEA)-Arg-Lys-Leu-Tyr-Asp-Tyr-NH2.2TFA | >95 | –
(MPA-AEEA)-Pro-Arg-Lys-Leu-Tyr-Asp-NH2.2TFA | >95 | –

The same purity stands for every peptide and may come from a single statement.
